Source: patent US12295949B2, “Treatment of the gastrointestinal tract with dimeric naphthalimide compounds” (Alumend, LLC, priority 2022, dated 2025)

Tested on: esophageal strictures generated by endoscopic mucosal resection (EMR)
Assay: Esophageal stricture (endoscopic mucosal resection) formation and treatment with compound I(a) plus PTA with light in minipigs
Type: in vivo, Yucatan minipigs
Details: one row per animal
Description: Five healthy Yucatan minipigs (20-28 kg) were enrolled in the study. For the EMR procedure, each animal was monitored and maintained under anesthesia throughout the duration of the procedure. Each animal was placed in a supine position and elevated to a 5-12 degrees reverse Trendelenburg position, to aid in keeping gastric fluids from coming into the EMR procedural area. A water base lubricant (Astroglide) was used to aid at every insertion of the endoscope.
The upper GI was intubated and surveyed for abnormalities and gastric fluid content via a GIF-XQ140 endoscope. Of the five animals, three animals underwent lavage to remove excess fluid and debris from the esophagus and gastric lumen by washing with saline and suctioning out fluid/debris. A fluoroscopic esophagogram was taken of the target area with the endoscope in place (FIG. 1). The distal tip was measured with a calibrated digital caliper and the measurement was used to calibrate the fluoroscopic measurement tool. […] All representative fluoroscopic and endoscopic imagery are from animal 19P39 unless otherwise stated.
The scope tip was positioned within ±3 cm of the target site. Suction was applied through the gastroscope to visualize the esophageal mucosa at the distal attachment (DA) and to visualize the injection range to capture approximately three-fourths of the esophageal lumen at the target site. The needle from the disposable EMR kit was inserted through the endoscope biopsy channel and into the endoscope field of view (FIG. 2A). The injector slider was pushed until it clicked into position to extend the needle from the sheath. A 10 mL syringe with saline was connected to the injector port. Suction was applied and the injector needle advanced to pierce the target mucosa and to inject a bolus of saline (FIG. 2B). The target area was injected with 0.5 mL to 2.0 mL of saline multiple times to reach a coverage of approximately three-fourths circumference of the target area. Following injections suction was released, and the needle withdrawn from the biopsy channel for insertion of the snare.
The snare was used to remove the blistered mucosal tissue from the treated area. The snare was retracted and inserted into the biopsy channel and advanced into the field of view with the distal sheath. The snare was connected to the electrosurgical unit (Olympus PSD-20). The electrosurgical unit has two settings, one setting is CUT, which is used to cut the tissue and the other setting is COAG, which is used to cauterize the tissue. The snare loop tip was slowly extended approximately 5-10 mm beyond the DA, and CUT was activated marking the base of the tissue bolus by cauterizing the mucosa (FIG. 3A). […]

[1] = Study Day 49 necropsy, cross-section of esophagus, compound I(a) + PTA w/ light

## NCCOCCOCCNc1ccc2c3c(cccc13)C(=O)N(CCOCCOCCN1C(=O)c3cccc4c(NCCOCCOCCN)ccc(c34)C1=O)C2=O [compound I(a)]
Study Day 49, fluoroscopic, untreated esophagus caudal to occlusion balloon, compound I(a) + PTA w/light animals
  Relaxed Esophagus Diameter Distal Balloon: 5.8 mm and 6.4 mm and 10.4 mm
Study Day 49, fluoroscopic, compound I(a) + PTA w/light animals
  Esophagus Diameter with Inflated Balloon: 20.0 mm and 23.4 mm and 25.8 mm
[1]
  Caudal to Stricture, Width: 20 millimeters and 23 millimeters and 17 millimeters
  Cranial to Stricture, Width: 19 millimeters and 21 millimeters and 20 millimeters

Where “and” joins values, the source holds several entries; their conditions need not be identical. Identical values can stand only once.
